At least one structure is not confirmed: it was looked up by name or label, or the drawing left a doubt. Starred links: 1 amine or outer side, 2 acyl side, 3 side chain; linkers in the order of their positions; H or OH if unused. Positions of bridges follow the written chain, without caps; N, C: chain ends. Residues, ends and D or L forms follow the SMILES beside them. Groups on a side chain read outwards from the residue. Chains are numbered I, II in the order given. *: point of attachment. Phe(Nα-CONH2) = NC(=O)N[C@@H](Cc1ccccc1)C(=O)*; C20 diacid = O=C(O)CCCCCCCCCCCCCCCCCCC(=O)*; γGlu = O=C(O)[C@H](CCC(=O)[*:2])N[*:1]; Hydantoyl = NC(=O)NCC(=O)*; AEEA = NCCOCCOCC(=O)O
Assays:
[1] = biological target: T1, human insulin receptor (IR-A) (Homo sapiens, UniProt P06213); experiment: Insulin receptor affinity, SPA antibody capture assay, 0% HSA; assay type: binding; conditions: relative to affinity of human insulin
Description: (§1) The affinity of the acylated insulin analogues of this invention for the human insulin receptor is determined by a SPA assay (Scintillation Proximity Assay) microtiterplate antibody capture assay. SPA-PVT antibody-binding beads, anti-mouse reagent (Amersham Biosciences, Cat No. PRNQ0017) are mixed with 25 ml of binding buffer (100 mM HEPES pH 7.8; 100 mM sodium chloride, 10 mM MgSO4, 0.025% Tween-20). Reagent mix for a single Packard Optiplate (Packard No. 6005190) is composed of 2.4 μl of a 1:5000 diluted purified recombinant human insulin receptor (either with or without exon 11), an amount of a stock solution of A14Tyr[^125I]-human insulin corresponding to 5000 cpm per 100 μl of reagent mix, 12 μl of a 1:1000 dilution of F12 antibody, 3 ml of SPA-beads and binding buffer to a total of 12 ml. A total of 100 μl reagent mix is then added to each well in the Packard Optiplate and a dilution series of the insulin derivative is made in the Optiplate from appropriate samples. The samples are then incubated for 16 hours while gently shaken. The phases are the then separated by centrifugation for 1 min and the plates counted in a Topcounter. The binding data were fitted using the nonlinear regression algorithm in the GraphPad Prism 2.01 (GraphPad Software, San Diego, Calif.) and affinities are expressed relative (in percentage (%)) to the affinity of human insulin.

Protein sequences, listed by entry. Tags and fused reporters are not part of them. Residues count along the entry.
UniProt P06213, 28-746 isoform P06213-2 limits assumed: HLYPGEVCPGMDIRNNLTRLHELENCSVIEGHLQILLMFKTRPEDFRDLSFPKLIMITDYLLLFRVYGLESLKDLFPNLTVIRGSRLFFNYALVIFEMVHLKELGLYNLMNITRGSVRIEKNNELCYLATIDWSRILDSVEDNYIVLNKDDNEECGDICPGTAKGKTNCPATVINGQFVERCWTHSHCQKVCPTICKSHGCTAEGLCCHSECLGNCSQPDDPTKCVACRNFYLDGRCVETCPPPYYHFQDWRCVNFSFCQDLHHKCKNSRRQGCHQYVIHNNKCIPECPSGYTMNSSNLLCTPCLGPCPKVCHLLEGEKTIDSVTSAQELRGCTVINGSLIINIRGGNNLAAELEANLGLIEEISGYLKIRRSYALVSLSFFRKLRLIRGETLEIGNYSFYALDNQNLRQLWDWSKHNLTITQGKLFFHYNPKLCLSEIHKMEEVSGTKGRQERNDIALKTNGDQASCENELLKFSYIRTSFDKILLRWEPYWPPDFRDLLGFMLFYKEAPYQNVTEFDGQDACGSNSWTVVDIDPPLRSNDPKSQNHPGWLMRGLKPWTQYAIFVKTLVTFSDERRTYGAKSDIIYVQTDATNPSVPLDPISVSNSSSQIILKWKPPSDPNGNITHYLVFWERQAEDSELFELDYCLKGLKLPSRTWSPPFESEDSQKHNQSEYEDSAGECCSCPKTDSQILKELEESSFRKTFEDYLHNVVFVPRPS
UniProt P06213, 763-1382 partner limits assumed: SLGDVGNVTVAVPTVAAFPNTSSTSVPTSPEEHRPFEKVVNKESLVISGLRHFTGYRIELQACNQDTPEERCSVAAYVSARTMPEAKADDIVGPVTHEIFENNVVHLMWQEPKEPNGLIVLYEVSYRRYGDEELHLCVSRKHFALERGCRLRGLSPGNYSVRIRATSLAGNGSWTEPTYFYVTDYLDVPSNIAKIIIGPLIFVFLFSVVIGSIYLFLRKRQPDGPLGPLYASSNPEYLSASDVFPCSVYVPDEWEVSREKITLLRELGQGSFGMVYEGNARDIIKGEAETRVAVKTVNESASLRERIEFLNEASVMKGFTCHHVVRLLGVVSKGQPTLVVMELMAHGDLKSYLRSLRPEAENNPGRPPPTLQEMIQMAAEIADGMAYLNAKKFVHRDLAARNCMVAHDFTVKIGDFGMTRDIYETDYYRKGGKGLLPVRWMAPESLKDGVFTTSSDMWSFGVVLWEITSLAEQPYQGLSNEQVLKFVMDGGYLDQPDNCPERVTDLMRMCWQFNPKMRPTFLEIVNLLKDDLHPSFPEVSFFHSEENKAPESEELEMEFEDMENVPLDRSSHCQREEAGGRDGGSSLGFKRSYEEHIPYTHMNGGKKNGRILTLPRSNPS

[2] = biological target: T1, human insulin receptor (IR-A); conditions: relative to affinity of human insulin; […] HSA in binding buffer
Description: as §1, with “insulin. […]” for “insulin.”

[3] = Hydrophobicity by isocratic reverse phase HPLC (k'rel); assay type: physicochemical; conditions: human insulin = 1, RP-HPLC pH 7.3
Description: The elution time of the insulin derivative is compared to that of human insulin (herein designated HI) or another derivative with a known hydrophibicity under the same conditions. The hydrophobicity, k′rel, is calculated as: k′relderiv=((tderiv−t0)/(tref−t0))*k′relref. Using HI as reference: k′relref=k′relHI=1. The void time of the HPLC system, t0, is determined by injecting 5 μl of 0.1 mM NaNO3. Running conditions:
Column: Lichrosorb RP-C18, 5 μm, 4×250 mm
Buffer A: 0.1 M natrium phosphate pH 7.3, 10 vol % CH3CN
After running an initial gradient, the isocratic level for running the derivative and reference (for example HI) is chosen, and the elution times of the derivative and reference under isocratic conditions are used in the above equation to calculate k′relderiv.

**Q.** Which “Relative IR-A affinity (@ 0% HSA) (%)” value [1] does the source give for `CC[C@H](C)[C@H](NC(=O)CNC(N)=O)C(=O)N[C@H](C(=O)N[C@@H](CCC(=O)O)C(=O)N[C@@H](CCC(N)=O)C(=O)N[C@H]1CSSC[C@@H]2NC(=O)[C@H]([C@@H](C)CC)NC(=O)[C@H](CO)NC(=O)[C@H]([C@@H](C)O)NC(=O)[C@H](CSSC[C@H](NC(=O)[C@H](CC(C)C)NC(=O)[C@H](Cc3c[nH]cn3)NC(=O)[C@H](CCC(N)=O)NC(=O)[C@H](CC(N)=O)NC(=O)[C@@H](NC(=O)[C@H](Cc3ccccc3)NC(N)=O)C(C)C)C(=O)NCC(=O)N[C@@H](CO)C(=O)N[C@@H](Cc3c[nH]cn3)C(=O)N[C@@H](CC(C)C)C(=O)N[C@@H](C(C)C)C(=O)N[C@@H](CCC(=O)O)C(=O)N[C@@H](C)C(=O)N[C@@H](CC(C)C)C(=O)N[C@@H](Cc3c[nH]cn3)C(=O)N[C@@H](CC(C)C)C(=O)N[C@@H](C(C)C)C(=O)N[C@H](C(=O)NCC(=O)N[C@@H](CCC(=O)O)C(=O)N[C@@H](CCCNC(=N)N)C(=O)NCC(=O)N[C@@H](Cc3ccccc3)C(=O)N[C@@H](Cc3ccccc3)C(=O)N[C@@H](Cc3ccc(O)cc3)C(=O)N3CCC[C@H]3C(=O)N[C@@H](CCCCNC(=O)COCCOCCNC(=O)COCCOCCNC(=O)CC[C@H](NC(=O)CCCCCCCCCCCCCCCCCCC(=O)O)C(=O)O)C(=O)O)CSSC[C@@H](C(=O)N[C@@H](CC(N)=O)C(=O)O)NC(=O)[C@H](Cc3ccc(O)cc3)NC(=O)[C@H](CC(N)=O)NC(=O)[C@H](CCC(=O)O)NC(=O)[C@H](CC(C)C)NC(=O)[C@H](CCC(N)=O)NC(=O)[C@H](CCC(=O)O)NC(=O)[C@H](CC(C)C)NC(=O)[C@H](CO)NC2=O)NC1=O)C(C)C` [Example 22] (I: {Phe(Nα-CONH2)}-VNQHLCGSHLVEALHLVCGERGFFYPK([AEEA-AEEA-γGlu-C20 diacid])-OH / II: Hydantoyl-IVEQCCTSICSLEQLENYCN-OH; disulfide I:6-II:6, I:18-II:19, II:5-II:10) here?
**A.** The value was 0.09%.

**Q.** What about the “Relative IR-A affinity (@ […] HSA) (%)e” value [2] of the same compound?
**A.** Its value is 0.02%.

**Q.** What about the “Hydrophobicity rel. to human insulin” value [3] of the same compound?
**A.** Its value is 0.32.
